From US20120283182A1 (GEORGIA REGENTS RESEARCH INSTITUTE, published 2012)

How the values were obtained:
Experiment in all cases: co-IP with anti-dF1Fo antisera from NCM mitochondria after 100 nM 4-β PMA; Western blot
[1] = target: T1, εPKC (rat, UniProt P09216 1-737)
T1 construct: also called ePKC; ε PKC isozyme
T1 sequence (looked up): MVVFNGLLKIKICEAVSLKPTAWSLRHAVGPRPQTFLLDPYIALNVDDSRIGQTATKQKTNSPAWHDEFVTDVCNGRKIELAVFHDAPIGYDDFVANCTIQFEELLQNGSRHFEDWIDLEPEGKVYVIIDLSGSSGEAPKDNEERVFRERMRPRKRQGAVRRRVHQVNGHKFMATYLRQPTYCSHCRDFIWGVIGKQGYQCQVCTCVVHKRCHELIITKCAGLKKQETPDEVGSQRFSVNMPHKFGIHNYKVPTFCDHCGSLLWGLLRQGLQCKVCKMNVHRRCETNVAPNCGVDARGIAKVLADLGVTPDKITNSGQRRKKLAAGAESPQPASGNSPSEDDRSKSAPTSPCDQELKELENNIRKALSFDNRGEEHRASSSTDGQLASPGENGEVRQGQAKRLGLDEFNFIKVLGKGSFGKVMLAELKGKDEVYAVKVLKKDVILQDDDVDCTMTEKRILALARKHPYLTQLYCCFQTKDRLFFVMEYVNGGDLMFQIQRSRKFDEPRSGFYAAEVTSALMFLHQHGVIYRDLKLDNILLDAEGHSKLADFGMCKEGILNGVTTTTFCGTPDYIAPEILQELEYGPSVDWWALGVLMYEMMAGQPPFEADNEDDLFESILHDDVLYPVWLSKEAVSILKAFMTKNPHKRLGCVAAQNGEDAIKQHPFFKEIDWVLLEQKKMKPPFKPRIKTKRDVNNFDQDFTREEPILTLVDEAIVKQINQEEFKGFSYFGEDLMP

[2] = target: T2, αPKC (rat, UniProt P05696 2-672)
T2 construct: also called aPKC; α PKC isozyme

[3] = target: T3, ξPKC (rat, UniProt P09217 1-592)
T3 construct: The Greek letter is printed as ξ, z or dropped altogether in places; also called zPKC; ξ PKC isozyme
T3 sequence (looked up): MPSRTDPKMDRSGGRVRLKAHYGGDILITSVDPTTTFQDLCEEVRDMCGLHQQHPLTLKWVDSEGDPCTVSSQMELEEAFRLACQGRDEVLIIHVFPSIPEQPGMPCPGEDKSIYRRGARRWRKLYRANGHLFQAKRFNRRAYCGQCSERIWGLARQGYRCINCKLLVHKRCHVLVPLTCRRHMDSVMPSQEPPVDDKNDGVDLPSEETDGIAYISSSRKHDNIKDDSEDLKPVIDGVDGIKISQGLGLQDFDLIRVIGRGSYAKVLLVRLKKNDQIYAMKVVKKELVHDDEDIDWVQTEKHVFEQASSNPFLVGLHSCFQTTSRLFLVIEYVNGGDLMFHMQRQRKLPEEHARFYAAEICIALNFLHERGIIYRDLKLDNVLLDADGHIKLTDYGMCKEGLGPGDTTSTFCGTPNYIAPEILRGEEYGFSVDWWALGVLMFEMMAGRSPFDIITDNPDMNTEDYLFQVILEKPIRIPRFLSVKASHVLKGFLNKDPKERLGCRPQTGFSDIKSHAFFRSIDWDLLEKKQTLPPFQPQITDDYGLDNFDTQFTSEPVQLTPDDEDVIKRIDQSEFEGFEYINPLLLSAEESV

Measured: binding result

B1: 'd' subunit of F1Fo ATP synthase (dF1Fo) (other)
chain: AGRKLALKTIDWVSFVEIMPQNQKAIGNALKSWNETFHTRLASLSEKPPAIDWAYYRANVDKPGLVDDFKNKYNALKIPVPEDKYTALVDAEEKEDVKNCAQFVTGSQARVREYEKQLEKIKNMIPFDQMTIDDLNEVFPETKLDKRKYPYWPHQPIENL
notes: In overlay assays it stood as an SDS-PAGE-resolved subunit of purified rat heart F1Fo ATPase on nitrocellulose; in co-IP it was pulled down from solubilised mitochondria with anti-dF1Fo antisera; also called δF1Fo; d subunit of F1Fo ATPase
no binding: all assays above
